This passage reports binding results from doi:10.1101/2021.05.31.445667.

Amino acid sequences for entries named in this document (tags omitted).
UniProt Q7Z2W4: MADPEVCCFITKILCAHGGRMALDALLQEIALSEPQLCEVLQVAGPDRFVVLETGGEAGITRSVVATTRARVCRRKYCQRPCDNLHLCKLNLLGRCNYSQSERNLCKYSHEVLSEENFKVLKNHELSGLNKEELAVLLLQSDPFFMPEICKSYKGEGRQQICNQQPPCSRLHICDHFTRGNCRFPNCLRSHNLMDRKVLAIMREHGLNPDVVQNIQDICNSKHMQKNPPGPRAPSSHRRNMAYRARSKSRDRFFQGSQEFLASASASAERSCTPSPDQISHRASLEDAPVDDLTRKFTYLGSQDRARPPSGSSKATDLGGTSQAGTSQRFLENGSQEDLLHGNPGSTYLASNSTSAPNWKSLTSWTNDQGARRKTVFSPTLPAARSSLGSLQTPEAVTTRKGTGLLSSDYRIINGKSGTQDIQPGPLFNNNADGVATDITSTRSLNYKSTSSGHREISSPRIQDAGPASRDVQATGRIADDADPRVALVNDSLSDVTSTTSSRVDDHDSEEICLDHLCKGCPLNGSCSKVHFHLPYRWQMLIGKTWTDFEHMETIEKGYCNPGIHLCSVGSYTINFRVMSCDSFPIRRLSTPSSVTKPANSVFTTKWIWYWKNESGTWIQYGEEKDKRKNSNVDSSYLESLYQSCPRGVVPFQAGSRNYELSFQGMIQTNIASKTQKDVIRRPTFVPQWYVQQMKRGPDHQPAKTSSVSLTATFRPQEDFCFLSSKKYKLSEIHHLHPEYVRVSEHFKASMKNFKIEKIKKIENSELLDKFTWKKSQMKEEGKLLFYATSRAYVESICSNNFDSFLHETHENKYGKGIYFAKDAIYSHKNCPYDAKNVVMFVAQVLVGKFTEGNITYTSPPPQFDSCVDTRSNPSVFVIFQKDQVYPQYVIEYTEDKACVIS
UniProt P05387: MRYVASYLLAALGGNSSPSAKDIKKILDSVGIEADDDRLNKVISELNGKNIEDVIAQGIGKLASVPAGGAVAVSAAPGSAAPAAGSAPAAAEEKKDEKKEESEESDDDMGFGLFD
UniProt P19474: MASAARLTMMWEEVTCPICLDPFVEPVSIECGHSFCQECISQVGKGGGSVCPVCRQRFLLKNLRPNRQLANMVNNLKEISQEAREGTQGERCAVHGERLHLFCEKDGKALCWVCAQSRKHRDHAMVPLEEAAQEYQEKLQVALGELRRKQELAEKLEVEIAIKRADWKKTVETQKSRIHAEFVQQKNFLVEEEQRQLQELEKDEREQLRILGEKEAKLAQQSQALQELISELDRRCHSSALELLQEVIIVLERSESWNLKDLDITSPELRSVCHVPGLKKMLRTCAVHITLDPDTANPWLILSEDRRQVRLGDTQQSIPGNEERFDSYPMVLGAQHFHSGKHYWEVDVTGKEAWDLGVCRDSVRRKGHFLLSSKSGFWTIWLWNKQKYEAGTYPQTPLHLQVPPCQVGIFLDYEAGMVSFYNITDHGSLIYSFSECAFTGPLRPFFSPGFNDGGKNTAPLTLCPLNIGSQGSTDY

Results are given in words; binding and its absence hold for the method and conditions named. Binding seen in cells or lysates may run through a third protein. These calls come from enrichment with a bait or labelling near it, and not all partners need be listed.

This experiment concerns the target zinc-finger antiviral protein (ZAP, ZC3HAV1), endogenous, immunoprecipitated from Calu-3 lysate (human (endogenous in Calu-3)) (UniProt Q7Z2W4). Nature of the experiment: affinity purification with mass spectrometry.
With RPLP2 (from UniProt P05387 1-115), the binding result is reported as “binds”.

As for TRIM21 (from UniProt P19474 1-475), the binding result is recorded as “binds”.

In the case of eIF4H (from UniProt Q15056 1-248), the binding result is given as “binds”.
